Data as given in PubChem BioAssay AID602196 (INSERM, 2012)
Aim: 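Knock-downs that protect lung cancer cells from cisplatin or sensitise them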. Cells: human A549 lung cancer cells. Knock-down reagent: siRNA pair against human genes. Time to read-out: 48 h transfection before cisplatin; time from cisplatin to read-out not stated. Challenge: cisplatin at a dose killing half of control-siRNA cells; exact dose and duration not given. Detection: 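Cisplatin cell death as a shift from the 50% death seen with control siRNA; siRNAs toxic or growth-blocking alone scored 0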. Reading the numbers: two-siRNA summed score (-2 to +2): higher = both siRNAs protect from cisplatin killing; -2 means both sensitise; mean protection from cisplatin (shift in death): higher = protection from cisplatin killing. Hit rule: 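Each siRNA scores 0 if harmful alone by LDH or WST-1, otherwise +1 if it reduces and -1 if it increases cisplatin killing; a gene is active when both siRNAs agree (sum +2 or -2)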. Calls: active = both siRNAs shift cisplatin killing the same way; inactive = no consistent shift, or siRNA harmful alone.
The deposit covers about 23,000 reagents; shown is a part drawn at random. 455 of them (2%) count as active. 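Active includes both protection and sensitisation; some change values fall well beyond the stated -50 to +50 range.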 Entries without a mark were called inactive. Further read-outs or replicates are left out here. Not given: the amount of reagent.

Knock-down of DYNLRB2 (dynein light chain roadblock-type 2) came out at: two-siRNA summed score (-2 to +2) = 0; mean protection from cisplatin (shift in death) (%) = -0.7.
LINC02243 (long independently transcribed non-coding RNA 2243) scored two-siRNA summed score (-2 to +2) = 0; mean protection from cisplatin (shift in death) (%) = 0.
Silencing of IRF2 (interferon regulatory factor 2) gave: two-siRNA summed score (-2 to +2) = 1; mean protection from cisplatin (shift in death) (%) = 30.1.
With knock-down of SLC46A3 the results were two-siRNA summed score (-2 to +2) = 0; mean protection from cisplatin (shift in death) (%) = 13.2.
Depletion of NRBF2 (nuclear receptor binding factor 2) resulted in: two-siRNA summed score (-2 to +2) = 0; mean protection from cisplatin (shift in death) (%) = -2.6.
For ID4 (inhibitor of DNA binding 4), the entry reads two-siRNA summed score (-2 to +2) = 0; mean protection from cisplatin (shift in death) (%) = 3.3.
WNT1 (Wnt family member 1) gave two-siRNA summed score (-2 to +2) = 0; mean protection from cisplatin (shift in death) (%) = -14.4.
LOC441365 scored two-siRNA summed score (-2 to +2) = 0; mean protection from cisplatin (shift in death) (%) = 3.2.
Silencing of CAMKK2 (calcium/calmodulin dependent protein kinase kinase 2) came out at: two-siRNA summed score (-2 to +2) = 1; mean protection from cisplatin (shift in death) (%) = 4.7.
ALG6 (ALG6 alpha-1,3-glucosyltransferase) gave two-siRNA summed score (-2 to +2) = 1; mean protection from cisplatin (shift in death) (%) = 19.2.
LOC442619 scored two-siRNA summed score (-2 to +2) = 0; mean protection from cisplatin (shift in death) (%) = 7.3.
Depletion of HNRNPR (heterogeneous nuclear ribonucleoprotein R) gave: two-siRNA summed score (-2 to +2) = 0; mean protection from cisplatin (shift in death) (%) = 12.8.
PTPRO (protein tyrosine phosphatase receptor type O) scored two-siRNA summed score (-2 to +2) = 0; mean protection from cisplatin (shift in death) (%) = 2.
LOC284417 showed two-siRNA summed score (-2 to +2) = 0; mean protection from cisplatin (shift in death) (%) = 0.6.
LOC442049 showed two-siRNA summed score (-2 to +2) = 0; mean protection from cisplatin (shift in death) (%) = 14.3.
SLC4A4 scored two-siRNA summed score (-2 to +2) = 0; mean protection from cisplatin (shift in death) (%) = -1.3.
Silencing of ALDH1A1 (aldehyde dehydrogenase 1 family member A1) gave: two-siRNA summed score (-2 to +2) = 0; mean protection from cisplatin (shift in death) (%) = -1.8.
Knock-down of KRTAP5-2 (keratin associated protein 5-2) resulted in: two-siRNA summed score (-2 to +2) = 0; mean protection from cisplatin (shift in death) (%) = 8.3.
After knock-down of KLK1 (kallikrein 1) the results were two-siRNA summed score (-2 to +2) = 0; mean protection from cisplatin (shift in death) (%) = 0.3.
For NOTO (notochord homeobox), the entry reads two-siRNA summed score (-2 to +2) = 0; mean protection from cisplatin (shift in death) (%) = -8.9.
CTRL (chymotrypsin like) gave two-siRNA summed score (-2 to +2) = -1; mean protection from cisplatin (shift in death) (%) = -5.7.
TWIST1 (twist family bHLH transcription factor 1) showed two-siRNA summed score (-2 to +2) = 0; mean protection from cisplatin (shift in death) (%) = -4.5.
LOC441707 scored two-siRNA summed score (-2 to +2) = 1; mean protection from cisplatin (shift in death) (%) = 13.3.
Depletion of HCN4 came out at: two-siRNA summed score (-2 to +2) = -1; mean protection from cisplatin (shift in death) (%) = -9.4.
With knock-down of NOS3 (nitric oxide synthase 3), the screen gave two-siRNA summed score (-2 to +2) = 0; mean protection from cisplatin (shift in death) (%) = -4.2.
Depletion of OR2A5 (olfactory receptor family 2 subfamily A member 5) resulted in: two-siRNA summed score (-2 to +2) = 0; mean protection from cisplatin (shift in death) (%) = 21.
For DOCK2 (dedicator of cytokinesis 2) the deposit lists two-siRNA summed score (-2 to +2) = 0; mean protection from cisplatin (shift in death) (%) = 8.4.
Against LOC441566 the deposit lists two-siRNA summed score (-2 to +2) = 0; mean protection from cisplatin (shift in death) (%) = 7.2.
With knock-down of SELENOP (selenoprotein P), the record shows two-siRNA summed score (-2 to +2) = 1; mean protection from cisplatin (shift in death) (%) = 9.5.
Against GPAA1 (glycosylphosphatidylinositol anchor attachment 1), the values are two-siRNA summed score (-2 to +2) = 0; mean protection from cisplatin (shift in death) (%) = 0.1.
After knock-down of UNQ9370 (retired record), the screen gave two-siRNA summed score (-2 to +2) = 0; mean protection from cisplatin (shift in death) (%) = -12.1.

Laid out differently: entries from further up
LOC441365
- two-siRNA summed score (-2 to +2): 0
- mean protection from cisplatin (shift in death) (%): 3.2

CAMKK2 (calcium/calmodulin dependent protein kinase kinase 2)
- two-siRNA summed score (-2 to +2): 1
- mean protection from cisplatin (shift in death) (%): 4.7
